Our source for the binding values is publication PMC6313896.

Amino acid sequences for entries named in this document (tags omitted). A change or cut given only in a name is not applied to a line headed by its entry. Residues count along the entry.
UniProt O70174, residues 31-629: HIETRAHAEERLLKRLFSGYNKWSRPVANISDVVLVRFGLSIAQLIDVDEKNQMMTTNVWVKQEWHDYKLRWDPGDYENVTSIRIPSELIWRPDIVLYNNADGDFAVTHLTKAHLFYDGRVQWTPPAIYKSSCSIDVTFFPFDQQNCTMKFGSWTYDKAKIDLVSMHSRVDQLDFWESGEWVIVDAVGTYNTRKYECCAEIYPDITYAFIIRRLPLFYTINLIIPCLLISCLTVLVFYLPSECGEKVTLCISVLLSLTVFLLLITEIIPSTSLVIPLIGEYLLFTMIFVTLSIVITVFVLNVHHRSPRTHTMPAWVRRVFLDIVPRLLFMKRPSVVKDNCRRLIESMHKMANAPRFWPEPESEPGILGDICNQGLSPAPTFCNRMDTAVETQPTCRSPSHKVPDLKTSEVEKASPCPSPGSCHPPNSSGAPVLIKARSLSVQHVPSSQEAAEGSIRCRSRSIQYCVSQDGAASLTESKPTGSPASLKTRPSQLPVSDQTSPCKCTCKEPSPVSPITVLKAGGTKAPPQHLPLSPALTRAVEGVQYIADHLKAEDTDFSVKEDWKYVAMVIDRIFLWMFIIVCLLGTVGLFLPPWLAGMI
UniProt Q9ERK7: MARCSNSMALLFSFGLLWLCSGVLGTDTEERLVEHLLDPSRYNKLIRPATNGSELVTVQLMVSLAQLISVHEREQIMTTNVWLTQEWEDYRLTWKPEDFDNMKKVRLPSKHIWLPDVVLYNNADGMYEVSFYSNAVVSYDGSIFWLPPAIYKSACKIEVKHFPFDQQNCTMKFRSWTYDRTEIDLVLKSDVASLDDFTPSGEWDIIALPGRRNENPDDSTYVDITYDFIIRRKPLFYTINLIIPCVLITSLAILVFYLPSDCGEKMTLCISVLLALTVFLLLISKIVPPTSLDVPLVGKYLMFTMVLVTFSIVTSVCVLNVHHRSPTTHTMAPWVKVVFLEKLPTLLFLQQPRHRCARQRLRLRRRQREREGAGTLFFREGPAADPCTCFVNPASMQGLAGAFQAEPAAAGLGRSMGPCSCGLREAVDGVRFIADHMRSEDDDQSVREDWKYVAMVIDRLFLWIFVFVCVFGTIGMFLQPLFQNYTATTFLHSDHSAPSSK

These are yes or no findings as the source states them, for the method shown. Binding seen in cells or lysates may run through a third protein. Some entries that bind do so weakly or less than the wild type.

Assay [1] deals with native α4 nAChR subunit from mouse brain (mouse (endogenous in mouse brain)) (UniProt O70174). Briefly: co-IP; mouse brain S3 fraction (Triton-soluble crude membranes) on M-270 Epoxy Dynabeads linked to nAChR antibodies (methods: mAb299 anti-α4 combined with mAb270 anti-β2; results and legend: anti-α4); overnight at 4 °C; bands of α4 and β2 excised from the gel and identified by LC-MS/MS; mice given saline, acute nicotine or chronic nicotine.

The target in assay [2] is β2-nAChR-YFP (nAChR Beta2-YFP) (mouse) (UniProt Q9ERK7). Kind of assay: co-IP; lysates of transfected HEK cells on magnetic GFP-nAb resin (Allele), which captures the YFP-tagged subunit; binding buffer 10 mM Tris-HCl, 150 mM NaCl, pH 7.5, detergent not above 0.6%; overnight at 4 °C; high-salt TBS washes; eluate run on SDS gels, bands of tagged and untagged subunits excised and identified by LC-MS/MS; cells co-expressed mRuby or CaMKII-mRuby; some samples treated on the resin with lambda phosphatase, PKA or CaMKIIα.

Assay [3] addresses α4-nAChR-YFP (nAChR alpha4-YFP) (mouse) (UniProt O70174). Described as above.

“native β2 nAChR subunit from mouse brain (from UniProt Q9ERK7 26-501) (receptor)”: the binding result in assay [1] is on record as “binds”.

In the case of “untagged α4-nAChR (nAChR alpha4 WT) (from UniProt O70174 31-629) (receptor)”, the binding entry in assay [2] was “binds”.

With “untagged β2-nAChR (nAChR beta2 WT) (from UniProt Q9ERK7 26-501) (receptor)”, the binding result in assay [3] was “binds”.
